According to US20030224390A1, “Method of identifying conformation-sensitive binding peptides and uses thereof” (Karo Bio AB, priority 2000, published 2003):
Results are given in words; binding and its absence hold for the method and conditions named. Some results given as binding are weak or reduced against the parent protein; the word gives no strength.

Chains of the proteins cited; added tags and fusions are not shown.
UniProt P03372: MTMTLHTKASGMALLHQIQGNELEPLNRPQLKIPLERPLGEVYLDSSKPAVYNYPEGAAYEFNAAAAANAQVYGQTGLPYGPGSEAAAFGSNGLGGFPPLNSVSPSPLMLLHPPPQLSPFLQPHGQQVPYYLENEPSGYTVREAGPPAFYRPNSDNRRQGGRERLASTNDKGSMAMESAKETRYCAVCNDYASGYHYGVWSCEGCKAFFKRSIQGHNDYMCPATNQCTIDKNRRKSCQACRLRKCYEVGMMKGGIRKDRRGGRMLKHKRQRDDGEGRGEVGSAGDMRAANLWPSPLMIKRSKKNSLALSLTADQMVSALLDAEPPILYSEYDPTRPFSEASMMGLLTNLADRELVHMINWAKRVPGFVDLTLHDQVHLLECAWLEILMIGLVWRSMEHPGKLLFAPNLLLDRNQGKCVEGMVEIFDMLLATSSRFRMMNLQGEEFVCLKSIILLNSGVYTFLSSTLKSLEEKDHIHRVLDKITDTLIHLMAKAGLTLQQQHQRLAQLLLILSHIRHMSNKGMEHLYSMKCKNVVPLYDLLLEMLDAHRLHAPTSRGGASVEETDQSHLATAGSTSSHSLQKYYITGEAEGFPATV
UniProt Q92731: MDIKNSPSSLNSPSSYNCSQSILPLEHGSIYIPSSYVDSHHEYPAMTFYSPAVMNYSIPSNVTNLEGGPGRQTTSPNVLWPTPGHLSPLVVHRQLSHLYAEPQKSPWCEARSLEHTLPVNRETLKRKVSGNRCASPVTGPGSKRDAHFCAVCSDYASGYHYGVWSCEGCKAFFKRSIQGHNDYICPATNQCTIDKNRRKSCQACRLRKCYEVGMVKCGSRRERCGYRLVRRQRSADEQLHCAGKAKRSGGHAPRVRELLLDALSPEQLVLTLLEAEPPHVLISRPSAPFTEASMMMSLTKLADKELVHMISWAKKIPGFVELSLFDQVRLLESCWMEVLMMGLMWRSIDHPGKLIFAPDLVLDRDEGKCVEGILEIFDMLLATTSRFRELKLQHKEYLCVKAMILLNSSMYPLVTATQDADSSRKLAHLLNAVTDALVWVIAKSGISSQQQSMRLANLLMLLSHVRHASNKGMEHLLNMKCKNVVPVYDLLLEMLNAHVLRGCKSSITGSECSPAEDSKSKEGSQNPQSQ

Legend:
[1] = biological target: ER α (immobilized, in vitro phage assays) (UniProt P03372); test: phage ELISA; buffer
[2] = biological target: ER β (immobilized, in vitro phage assays) (UniProt Q92731); test: phage ELISA; buffer
[3] = biological target: ER α (immobilized, in vitro phage assays) (UniProt P03372); test: phage ELISA; DES 1 µM
[4] = biological target: ER β (immobilized, in vitro phage assays) (UniProt Q92731); test: phage ELISA; DES 1 µM
[5] = biological target: ER α (immobilized, in vitro phage assays) (UniProt P03372); test: phage ELISA; estriol 1 µM
[6] = biological target: ER β (immobilized, in vitro phage assays) (UniProt Q92731); test: phage ELISA; estriol 1 µM
[7] = biological target: ER α (immobilized, in vitro phage assays) (UniProt P03372); test: phage ELISA; estradiol 1 µM
[8] = biological target: ER β (immobilized, in vitro phage assays) (UniProt Q92731); test: phage ELISA; estradiol 1 µM
[9] = biological target: ER α (immobilized, in vitro phage assays) (UniProt P03372); test: phage ELISA; premarin 10 µM
[10] = biological target: ER β (immobilized, in vitro phage assays) (UniProt Q92731); test: phage ELISA; premarin 10 µM
[11] = biological target: ER α (immobilized, in vitro phage assays) (UniProt P03372); test: phage ELISA; raloxifene 1 µM
[12] = biological target: ER β (immobilized, in vitro phage assays) (UniProt Q92731); test: phage ELISA; raloxifene 1 µM
[13] = biological target: ER α (immobilized, in vitro phage assays) (UniProt P03372); test: phage ELISA; ICI 182,780 1 µM
[14] = biological target: ER β (immobilized, in vitro phage assays) (UniProt Q92731); test: phage ELISA; ICI 182,780 1 µM
[15] = biological target: ER α (immobilized, in vitro phage assays) (UniProt P03372); test: phage ELISA; clomiphene 10 µM
[16] = biological target: ER β (immobilized, in vitro phage assays) (UniProt Q92731); test: phage ELISA; clomiphene 10 µM
[17] = biological target: ER α (immobilized, in vitro phage assays) (UniProt P03372); test: phage ELISA; nafoxidine 10 µM
[18] = biological target: ER β (immobilized, in vitro phage assays) (UniProt Q92731); test: phage ELISA; nafoxidine 10 µM
[19] = biological target: ER α (immobilized, in vitro phage assays) (UniProt P03372); test: phage ELISA; progesterone 1 µM
[20] = biological target: ER β (immobilized, in vitro phage assays) (UniProt Q92731); test: phage ELISA; progesterone 1 µM
[21] = biological target: ER α (immobilized, in vitro phage assays) (UniProt P03372); test: phage ELISA; 4-OH tamoxifen 1 µM
[22] = biological target: ER β (immobilized, in vitro phage assays) (UniProt Q92731); test: phage ELISA; 4-OH tamoxifen 1 µM
[23] = biological target: ER α (immobilized, in vitro phage assays) (UniProt P03372); test: phage ELISA; 16α-OH estrone 10 µM
[24] = biological target: ER β (immobilized, in vitro phage assays) (UniProt Q92731); test: phage ELISA; 16α-OH estrone 10 µM
[25] = biological target: ER α (immobilized, in vitro phage assays) (UniProt P03372); test: phage binding, unliganded ER α
[26] = biological target: ER β (immobilized, in vitro phage assays) (UniProt Q92731); test: phage binding, unliganded ER β

Measured: binding

SSWDMHQFFWEGVSR [α/β III (AB3)]
not listed: [25] | [26]
binds: all other assays above

HGPLTLNLLRSSGG [#41 ER + estradiol (Table 3)]
binds: [25] | [26]

SSEACVGRWMLCEQLGVSR [β III (B3)]
binds: [2] | [4] | [6] | [8] | [10] | [12] | [14] | [16] | [18] | [20] | [22] | [24]

SREWEDGFGGRWLSR (also called 4Tβ; 4T-β) [β I (B1)]
binds: [2] | [4] | [6] | [8] | [10] | [12] | [16] | [18] | [20] | [22] | [24]

SSLDLSQFPMTASFLRESR (also called 35Eβ) [β II (B2)]
binds: [2] | [4] | [6] | [8] | [10] | [24]

SSPGSREWFKDMLSR (also called 14Tβ; 14T-β) [α/β V (AB5)]
not listed: [14] | [25] | [26]
binds: all other assays above

SRLPPSVFSMCGSEVCLSR [α/β IV (AB4)]
not listed: [13] | [25] | [26]
binds: all other assays above
